# Experimental data: the supplement of paper PMC4604168 (melanoma cell lines)
# This is one part of the list. Many values rest on one well or one pass, so single values are uncertain.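 The apoptosis fraction was the count of cleaved-PARP antibody-stained nuclei relative to all DNA-stained nuclei, imaged in 1,536-well plates. Screening doses were set so most cells survived, and baseline and induced cleaved-PARP levels vary greatly across cell lines.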
# Test system: UACC62
# Experiment: cleaved PARP positive nuclei fraction relative to DMSO control; melanoma cells; higher = more apoptosis
# Conditions: library dose: low library concentration; 72 h
row,SMILES,cleaved PARP positive nuclei fraction [%]
1,"O=C(O)[C@@H]1[O][Sb](=[O])([O][Sb]2(=[O])[O][C@H]([C@H](O)CO)[C@H](O)[C@H](C(=O)O)[O]2)[O][C@H]([C@H](O)CO)[C@@H]1O (stereo partly drawn) [stibogluconate] + O=C(O)c1ccc(-c2c[nH]c3ncc(-c4ccccc4)cc23)cc1C1CCCC1 [GSK650394] (first compound 2 µM, partner dose 0.16 µM)",59
2,"Cn1c(=O)n(-c2ccc(C(C)(C)C#N)cc2)c2c3cc(-c4cnc5ccccc5c4)ccc3ncc21 + CCCCCCCCCCCC1=C(O)C(=O)C=C(O)C1=O [Embelin] (first compound 0.004 µM, partner dose 1.2 µM)",176
3,"CN1CCN(c2ccc3nc(-c4c(N)c5c(F)cccc5[nH]c4=O)[nH]c3c2)CC1 [Dovitinib] + NCC(=O)Nc1ccc(-n2nc(C(F)(F)F)cc2-c2ccc3c(ccc4ccccc43)c2)cc1 [OSU03012] (first compound 0.1 µM, partner dose 1 µM)",156
4,"C=C(c1ccc(C(=O)O)cc1)c1cc2c(cc1C)C(C)(C)CCC2(C)C [Bexarotene] + Cc1cc([N+](=O)[O-])ccc1NS(=O)(=O)c1cc(Cl)ccc1Cl [FH535] (first compound 2 µM, partner dose 1 µM)",142
5,"Cc1cc(Nc2cc(N3CCN(C)CC3)nc(/C=C/c3ccccc3)n2)n[nH]1 + COC(=O)c1sccc1S(=O)(=O)Nc1ccc(Nc2ccccc2)cc1OC [GSK0660] (first compound 0.04 µM, partner dose 1 µM)",124
6,"CC(C)C[C@H](NC(=O)[C@H](Cc1ccccc1)NC(=O)c1cnccn1)B(O)O [Bortezomib] + Cc1cc([N+](=O)[O-])ccc1NS(=O)(=O)c1cc(Cl)ccc1Cl [FH535] (first compound 0.001 µM, partner dose 1 µM)",232
7,"CC(C)C[C@H](NC(=O)[C@H](Cc1ccccc1)NC(=O)c1cnccn1)B(O)O [Bortezomib] + O=C(CCCCCCC(=O)Nc1ccccc1)NO [vorinostat] (first compound 0.001 µM, partner dose 0.08 µM)",206
8,"Nc1ncn([C@H]2C[C@H](O)[C@@H](CO)O2)c(=O)n1 [decitabine] + COc1ccc2c(c1)CCC1C2CCC2(C)C(NCCCCCCN3C(=O)C=CC3=O)CCC12 [U73122] (first compound 0.1 µM, partner dose 0.4 µM)",136

# Reprinted at random: 2 entries already listed, in no set order.
row,SMILES,cleaved PARP positive nuclei fraction [%]
2,"Cn1c(=O)n(-c2ccc(C(C)(C)C#N)cc2)c2c3cc(-c4cnc5ccccc5c4)ccc3ncc21 + CCCCCCCCCCCC1=C(O)C(=O)C=C(O)C1=O [Embelin] (first compound 0.004 µM, partner dose 1.2 µM)",176
4,"C=C(c1ccc(C(=O)O)cc1)c1cc2c(cc1C)C(C)(C)CCC2(C)C [Bexarotene] + Cc1cc([N+](=O)[O-])ccc1NS(=O)(=O)c1cc(Cl)ccc1Cl [FH535] (first compound 2 µM, partner dose 1 µM)",142
